# Laboratory results as given in the supplement of paper PMC12819154, “High-throughput peptide-centric local stability assay extends protein–ligand identification to membrane proteins, tissues and bacteria” (Nature Structural & Molecular Biology, 2025).
# Protein sequences, listed by entry. Tags and fused reporters are not part of them. Lines headed by an entry give the natural chain unless they say otherwise; changes in a name come on top.
# UniProt P58005: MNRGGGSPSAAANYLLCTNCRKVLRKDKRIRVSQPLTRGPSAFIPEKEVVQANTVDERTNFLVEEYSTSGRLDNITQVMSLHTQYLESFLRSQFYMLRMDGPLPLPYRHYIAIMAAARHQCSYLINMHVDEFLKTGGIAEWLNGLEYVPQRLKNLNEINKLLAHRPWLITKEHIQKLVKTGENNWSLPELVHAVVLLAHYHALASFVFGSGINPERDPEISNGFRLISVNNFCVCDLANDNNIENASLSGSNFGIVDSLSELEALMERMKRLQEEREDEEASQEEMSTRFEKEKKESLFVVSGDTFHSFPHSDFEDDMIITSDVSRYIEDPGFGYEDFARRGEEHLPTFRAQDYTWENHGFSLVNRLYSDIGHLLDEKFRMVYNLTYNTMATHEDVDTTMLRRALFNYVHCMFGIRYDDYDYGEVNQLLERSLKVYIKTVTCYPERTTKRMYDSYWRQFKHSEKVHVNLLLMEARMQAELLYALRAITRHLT
# UniProt P63010: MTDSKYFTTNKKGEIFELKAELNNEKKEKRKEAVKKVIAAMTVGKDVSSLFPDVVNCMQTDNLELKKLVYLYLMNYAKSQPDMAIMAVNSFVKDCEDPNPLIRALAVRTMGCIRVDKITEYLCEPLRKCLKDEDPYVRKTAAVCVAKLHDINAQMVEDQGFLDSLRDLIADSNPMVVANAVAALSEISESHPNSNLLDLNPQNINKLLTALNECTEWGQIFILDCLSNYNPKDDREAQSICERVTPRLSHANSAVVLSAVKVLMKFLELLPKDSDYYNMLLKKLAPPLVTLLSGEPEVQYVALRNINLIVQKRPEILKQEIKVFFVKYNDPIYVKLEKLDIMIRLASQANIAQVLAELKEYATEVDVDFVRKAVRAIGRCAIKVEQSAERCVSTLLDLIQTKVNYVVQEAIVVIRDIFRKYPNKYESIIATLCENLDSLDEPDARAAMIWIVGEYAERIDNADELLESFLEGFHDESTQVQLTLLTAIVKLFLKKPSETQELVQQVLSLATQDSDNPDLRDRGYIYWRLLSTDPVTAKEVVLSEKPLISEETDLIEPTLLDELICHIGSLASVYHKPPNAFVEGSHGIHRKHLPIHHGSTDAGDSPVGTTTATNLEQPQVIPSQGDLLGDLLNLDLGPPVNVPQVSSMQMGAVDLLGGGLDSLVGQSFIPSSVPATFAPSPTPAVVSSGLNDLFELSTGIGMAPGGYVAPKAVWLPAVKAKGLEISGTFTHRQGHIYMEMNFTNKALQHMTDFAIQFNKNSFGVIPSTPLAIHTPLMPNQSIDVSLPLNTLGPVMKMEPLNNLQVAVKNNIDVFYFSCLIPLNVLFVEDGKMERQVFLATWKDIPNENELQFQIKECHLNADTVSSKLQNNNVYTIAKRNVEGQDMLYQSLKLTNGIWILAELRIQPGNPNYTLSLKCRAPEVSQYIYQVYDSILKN
# UniProt P67775, whole entry: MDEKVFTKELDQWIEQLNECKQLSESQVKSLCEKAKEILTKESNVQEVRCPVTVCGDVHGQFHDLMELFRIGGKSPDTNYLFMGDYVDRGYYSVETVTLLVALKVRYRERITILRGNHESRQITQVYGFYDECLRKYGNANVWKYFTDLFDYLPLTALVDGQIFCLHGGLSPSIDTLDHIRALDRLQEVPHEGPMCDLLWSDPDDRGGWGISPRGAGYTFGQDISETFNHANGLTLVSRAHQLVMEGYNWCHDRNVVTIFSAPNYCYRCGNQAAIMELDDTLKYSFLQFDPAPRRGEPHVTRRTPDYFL
# UniProt P62714, whole entry: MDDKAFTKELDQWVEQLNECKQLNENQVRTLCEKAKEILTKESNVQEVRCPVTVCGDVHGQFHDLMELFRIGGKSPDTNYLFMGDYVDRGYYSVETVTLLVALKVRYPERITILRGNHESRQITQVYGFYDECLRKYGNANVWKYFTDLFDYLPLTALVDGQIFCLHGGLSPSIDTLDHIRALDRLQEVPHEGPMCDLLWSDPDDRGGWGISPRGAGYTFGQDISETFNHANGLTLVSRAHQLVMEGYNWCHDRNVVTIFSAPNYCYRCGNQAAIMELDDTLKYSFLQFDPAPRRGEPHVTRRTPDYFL
# UniProt P68871: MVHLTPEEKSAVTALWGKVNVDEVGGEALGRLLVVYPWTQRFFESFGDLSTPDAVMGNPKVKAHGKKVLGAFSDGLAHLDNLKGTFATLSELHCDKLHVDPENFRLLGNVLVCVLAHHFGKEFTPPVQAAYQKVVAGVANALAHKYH
# UniProt P62314, whole entry: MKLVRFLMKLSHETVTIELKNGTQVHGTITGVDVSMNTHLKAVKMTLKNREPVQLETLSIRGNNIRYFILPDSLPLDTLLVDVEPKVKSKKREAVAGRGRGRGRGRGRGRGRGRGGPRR
# The other results are listed elsewhere or left out. Small differences around the control level are noise.
# Compound: Cc1nc(Nc2ncc(C(=O)Nc3c(C)cccc3Cl)s2)cc(N2CCN(CCO)CC2)n1 [dasatinib]
# Assay: log2 fold change of tryptic peptide abundance, ligand vs vehicle (limited proteolysis) (log2 ratio); higher = more trypsin-susceptible (destabilized)
# Conditions: ligand concentration: 5 uM; sample: K562 cleared lysate
row,Target,log2 fold change
1,"UniProt P58005 (peptide sequence: AQDYTWENHGFSLVNR, peptide start residue: 351)",-0.563
2,"UniProt P61313 (peptide sequence: GATYGKPVHHGVNQLKFAR, peptide start residue: 78)",0.502
3,"AP2B1 (peptide sequence: AELNNEKKEK, peptide start residue: 20) (UniProt P63010)",1.25
4,"PPP2CA (peptide sequence: QITQVYGFYDECLRK, peptide start residue: 119) (UniProt P67775)",0.0946
5,"UniProt P62244 (peptide sequence: QFGFIVLTTSAGIMDHEEARRK, peptide start residue: 98)",0.48
6,"UniProt P62714 (peptide sequence: QLNENQVR, peptide start residue: 22)",0.195
7,"HBB (peptide sequence: VNVDEVGGEALGR, peptide start residue: 19) (UniProt P68871)",0.42
8,"UniProt P62314 (peptide sequence: NREPVQLETLSIR, peptide start residue: 49)",-0.0581
